In PubChem BioAssay AID485314 (National Center for Advancing Translational Sciences (NCATS), 2010):
Out of some 340,000 compounds screened, about 4,500 (1.3%) were called active. Inconclusive results, whose numbers are uncertain, are shown with a selection of clear calls. The call rests on the fitted dose curve; in most records, active means well fitted inhibition curve with a large enough effect; inconclusive means small, poorly fitted or top-dose-only effect, or another doubt; inactive means no such curve, though single readings can be large or run the other way. Potencies of inconclusive entries are doubtful fits and often do not repeat.

The molecules below were run against DNA polymerase beta (Homo sapiens) (UniProt P06746) (assay: qHTS Assay for Inhibitors of DNA Polymerase Beta). Details: Pol beta primer extension/strand displacement, fluorescence kinetic; activity change, negative = inhibition: at 114 µM (top of the series).
Outline: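 Kinetic readout of DNA synthesis with strand displacement by Pol beta. Compound and 10 nM enzyme sit 15 min at room temperature; 50 nM substrate starts the reaction, read immediately and at 10 min.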
On the % scale 0 is the no-effect control and ±100 the full control effect; potency means the concentration at half of the fitted maximal effect.

| SMILES | Potency | activity change, negative = inhibition |
| --- | --- | --- |
| Cn1cccc1/C=C1/C(=O)NC(=O)N(Cc2ccc(F)cc2)C1=O | inactive | – |
| CC(C)Oc1cccc(C(=O)C2CCCN(Cc3ccon3)C2)c1 (configuration not stated) | inactive | – |
| Clc1ccc(COC(Cn2ccnc2)c2ccc(Cl)cc2Cl)cc1 (configuration not stated) | inactive | – |
| COc1ccc(C(=O)N/N=C/C23CC[C@@H](O)CC2(O)CC[C@@H]2[C@@H]3CCC3(C)C(C4=CC(=O)OC4)CCC23O)cc1 (some centres not stated) | – | inconclusive: -35.8% [inhibitor] |
| Cc1c(CC(=O)N2C[C@H]3C[C@@H](C2)c2cccc(=O)n2C3)c(=O)oc2c(C)c(O)ccc12 | inconclusive: 15.8 µM [inhibitor, single point] | – |
| FC(F)(F)c1ccc2c(c1)nnn2C1CCN(Cc2nnnn2Cc2ccccc2)CC1 | inconclusive: 0.282 µM [inhibitor, full curve] | – |
| Cc1cc(C)cc(OCCOc2cccc(C=C3C(=O)NC(=O)NC3=O)c2)c1 | inactive | – |
| CCCN1CCC[C@@H]2Cc3n[nH]cc3C[C@H]21 | inactive | – |
| O=C(COC(=O)c1cccc(NC(=O)c2ccc(Br)cc2)c1)c1ccc(Br)cc1 | inconclusive: 0.794 µM [inhibitor, single point] | – |
| Cc1ccc2c(c1)C1CN(C)CCC1N2C(=O)Cn1cnc2c1c(=O)n(C)c(=O)n2C (configuration not stated) | inactive | – |
| Cc1ccc(CNC(=O)CCCn2c(=O)c3sccc3n(CC(=O)Nc3c(C)cccc3C)c2=O)cc1 | inconclusive: 39.8 µM [inhibitor, full curve, poor fit] | – |
| COc1ccc(C(=O)Nc2ccc3oc(-c4ccc(F)cc4Cl)nc3c2)cc1 | inconclusive: 4.47 µM [inhibitor, full curve, poor fit] | – |
| Cc1ccc(NC(=O)COC(=O)/C=C/c2ccco2)cc1S(=O)(=O)N(C)C | inconclusive: 39.8 µM [inhibitor, partial curve] | – |
| CN1C2CCC1CC(OC(=O)c1ccc([N+](=O)[O-])cc1)C2 (configuration not stated) | inconclusive: 63.1 µM [inhibitor, partial curve] | – |
| Cc1[nH]c2ccc(OC(F)(F)F)cc2c1CCNCc1cccc([N+](=O)[O-])c1 | inconclusive: 39.8 µM [inhibitor, single point] | – |
| N#CCCn1cc(C(=O)Nc2ccccc2Br)c(-c2ccc([N+](=O)[O-])cc2)n1 | inactive | – |
| Cc1nc(-c2ccc(-c3ccc(C(=O)N4CCc5cc6c(cc54)C4(CCN(C)CC4)CO6)cc3)c(C)c2)no1 | inconclusive: 39.8 µM [inhibitor, partial curve] | – |
| Cc1nc2ccccc2c(=O)n1-c1ccc(Cl)cc1Cl | inactive | – |
| CCC(C)NC(=O)c1c(N)n(CCCOC)c2nc3ccccc3nc12 (configuration not stated) | inactive | – |
| COc1ccc(-c2cc(=Nc3cccc(C(=O)O)c3)c3cc(C)ccc3o2)cc1 | inconclusive: 22.4 µM [inhibitor, full curve] | – |
| Cc1cccc(N2C(=O)NC(=O)/C(=C/c3cc4c(cc3[N+](=O)[O-])OCO4)C2=O)c1 | inactive | – |

| SMILES | Potency | activity change, negative = inhibition |
| --- | --- | --- |
| O=C1NC(=O)[C@]2(Cc3ccccc3N3CCN(c4ccccc4)CC32)C(=O)N1c1ccccc1 (some centres not stated) | inactive | – |
| CN1CCN(c2cn[nH]c(=O)c2Cl)CC1 | inconclusive: 1.12 µM [inhibitor, full curve, poor fit] | – |
| CCn1ncc(-c2ccnc3cc(C(=O)O)nn23)c1C | inconclusive: 44.7 µM [inhibitor, partial curve] | – |
| Cc1ccc(NC(=O)C2CCN(C(=O)c3cnn(-c4ccccc4)c3-n3cccc3)CC2)cc1Cl | inconclusive: 89.1 µM [inhibitor, single point] | – |
| Cn1c(O)c(C2=NN(C(=O)CCl)C(c3ccccc3)C2)c(=O)n(C)c1=O (configuration not stated) | inconclusive: 0.224 µM [inhibitor, full curve, poor fit] | – |
| CCOc1cccc(OCC)c2c(C)[n+](CC3CCCO3)c(C)c1-2 (configuration not stated) | active: 22.4 µM | – |
| CC(=O)c1ccc2c(c1)C1C(Cl)C(Sc3ccccc3[N+](=O)[O-])CC1C(C(=O)O)N2 (configuration not stated) | active: 39.8 µM | – |
| CN1CCC2(CC1)C(C#N)=C(N)NC(S)=C2C#N | inconclusive: 39.8 µM [inhibitor, single point] | – |
| O=C(Nc1ccc(Cl)c(C(F)(F)F)c1)c1ccc2c(c1)CCN2S(=O)(=O)c1ccccc1 | inconclusive: 89.1 µM [inhibitor, single point] | – |
| CCOC(=O)c1ccc(NC(=O)CSc2ccc(-c3cccnc3)nn2)cc1 | inconclusive: 15.8 µM [inhibitor, single point] | – |
| CCOc1ccc(NC(=O)C2C3c4ccccc4C(c4ccccc43)C2C(=O)O)cc1 (configuration not stated) | inconclusive: 100 µM [inhibitor, single point] | – |
| O=C(O)c1ccc2c(c1)C1C(Cl)C(Sc3ccccc3[N+](=O)[O-])CC1C(c1cccc([N+](=O)[O-])c1)N2 (configuration not stated) | inconclusive: 44.7 µM [inhibitor, partial curve] | – |
| COc1ccccc1N1C(=O)NC(=O)/C(=C/c2ccc([N+](=O)[O-])s2)C1=O | – | inconclusive: -77.7% [inhibitor] |
| CCCNC(=O)c1c(N)n(Cc2ccco2)c2nc3ccccc3nc12 | inconclusive: 31.6 µM [inhibitor, partial curve] | – |
| S=c1[nH]nc(-c2ccco2)n1-c1cccc2ccccc12 | inconclusive: 79.4 µM [inhibitor, single point] | – |
| CC(C)OP(=O)(c1ccc(N(C)C)cc1)C(O)c1ccc(Br)cc1 (configuration not stated) | inconclusive: 89.1 µM [inhibitor, single point] | – |
| O=C1NC(=S)N(Cc2ccco2)C(=O)/C1=C\c1cccs1 | active: 1.12 µM | – |
| Cc1ccc(/C=C2\C(=O)NC(=S)N(c3ccccc3F)C2=O)s1 | inconclusive: 22.4 µM [inhibitor, full curve] | – |
| O=c1c2ccccc2nc(/C=C/c2ccc([N+](=O)[O-])o2)n1-c1ccc(O)cc1 | inconclusive: 22.4 µM [inhibitor, full curve] | – |
| CCc1ccc(NC(=O)Cn2c(=O)oc3cc(S(=O)(=O)NCc4ccccc4)ccc32)cc1 | active: 20 µM | – |
| COc1ccccc1N1C(=O)NC(=O)/C(=C/c2ccc3c(c2)Cc2ccccc2-3)C1=O | inactive | – |

Gathered by group, the compounds so far containing two or more sulfur atoms

| SMILES | Potency | activity change, negative = inhibition |
| --- | --- | --- |
| O=C1NC(=S)N(Cc2ccco2)C(=O)/C1=C\c1cccs1 | active: 1.12 µM | – |
| Cc1ccc(/C=C2\C(=O)NC(=S)N(c3ccccc3F)C2=O)s1 | inconclusive: 22.4 µM [inhibitor, full curve] | – |
